These are yes or no findings as the source states them, for the method shown. Binding seen in cells or lysates may run through a third protein. Here binding means that the protein was enriched with, or labelled near, the bait; the list need not be complete.

Here are results for two molecules from PMC10849766.

The target of experiment [1] is T1, Vascular endothelial (VE)-cadherin (human (endogenous in HBMECs)) (UniProt P33151).
T1 sequence: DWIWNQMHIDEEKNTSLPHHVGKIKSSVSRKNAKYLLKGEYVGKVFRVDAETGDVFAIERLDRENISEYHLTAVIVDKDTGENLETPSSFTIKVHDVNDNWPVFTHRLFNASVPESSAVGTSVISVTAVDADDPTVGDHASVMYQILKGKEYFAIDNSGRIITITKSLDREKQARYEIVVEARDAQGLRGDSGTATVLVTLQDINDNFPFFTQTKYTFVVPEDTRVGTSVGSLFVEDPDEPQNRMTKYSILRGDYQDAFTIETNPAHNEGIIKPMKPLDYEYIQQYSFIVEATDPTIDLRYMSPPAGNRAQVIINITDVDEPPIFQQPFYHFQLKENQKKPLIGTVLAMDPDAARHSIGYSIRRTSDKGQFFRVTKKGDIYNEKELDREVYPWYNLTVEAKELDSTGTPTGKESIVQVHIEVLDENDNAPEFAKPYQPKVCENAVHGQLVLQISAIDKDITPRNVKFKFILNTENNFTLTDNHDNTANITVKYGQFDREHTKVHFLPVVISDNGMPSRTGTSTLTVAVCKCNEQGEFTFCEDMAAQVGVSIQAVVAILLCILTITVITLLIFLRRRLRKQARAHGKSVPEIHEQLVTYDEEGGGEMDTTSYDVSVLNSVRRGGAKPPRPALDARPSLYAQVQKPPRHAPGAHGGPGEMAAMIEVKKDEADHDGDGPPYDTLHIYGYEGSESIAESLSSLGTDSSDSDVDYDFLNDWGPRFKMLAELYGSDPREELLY
Nature of the experiment: affinity purification with mass spectrometry; IP with anti-VE-cadherin antibody and quantitative (label-free) LC-MS; HBMECs under hypoxia plus IL-1β for 24 hours with or without rhTIMP2.

Experiment [2] addresses T2, Vascular endothelial (VE)-cadherin (human (endogenous in HBMECs)), P33151.
T2 chain: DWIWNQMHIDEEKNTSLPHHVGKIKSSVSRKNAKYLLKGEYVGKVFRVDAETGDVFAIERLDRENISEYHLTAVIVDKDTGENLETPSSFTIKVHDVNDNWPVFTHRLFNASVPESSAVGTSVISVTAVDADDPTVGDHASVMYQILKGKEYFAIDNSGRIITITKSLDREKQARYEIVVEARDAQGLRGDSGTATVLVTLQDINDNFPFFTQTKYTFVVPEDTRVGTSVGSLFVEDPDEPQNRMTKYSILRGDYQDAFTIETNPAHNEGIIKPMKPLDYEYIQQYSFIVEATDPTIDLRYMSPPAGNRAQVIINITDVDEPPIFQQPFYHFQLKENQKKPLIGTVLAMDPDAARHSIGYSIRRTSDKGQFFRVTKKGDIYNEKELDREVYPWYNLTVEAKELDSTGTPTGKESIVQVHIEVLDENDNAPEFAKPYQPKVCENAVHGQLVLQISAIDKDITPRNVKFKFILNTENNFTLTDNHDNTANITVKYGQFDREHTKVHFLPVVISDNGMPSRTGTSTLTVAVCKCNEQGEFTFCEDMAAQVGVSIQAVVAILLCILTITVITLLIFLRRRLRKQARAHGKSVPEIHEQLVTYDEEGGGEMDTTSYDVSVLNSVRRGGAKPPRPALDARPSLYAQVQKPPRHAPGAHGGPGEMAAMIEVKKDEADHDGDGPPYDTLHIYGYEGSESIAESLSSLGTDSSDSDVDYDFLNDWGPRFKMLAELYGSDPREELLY
Described as above. As to conditions: remark: other sources report otherwise.

As for “α-catenin (human (endogenous in HBMECs))”, the binding entry in experiment [1] was “binds”.

B1: β-catenin, P35222 1-781 (protein)
chain: MATQADLMELDMAMEPDRKAAVSHWQQQSYLDSGIHSGATTTAPSLSGKGNPEEEDVDTSQVLYEWEQGFSQSFTQEQVADIDGQYAMTRAQRVRAAMFPETLDEGMQIPSTQFDAAHPTNVQRLAEPSQMLKHAVVNLINYQDDAELATRAIPELTKLLNDEDQVVVNKAAVMVHQLSKKEASRHAIMRSPQMVSAIVRTMQNTNDVETARCTAGTLHNLSHHREGLLAIFKSGGIPALVKMLGSPVDSVLFYAITTLHNLLLHQEGAKMAVRLAGGLQKMVALLNKTNVKFLAITTDCLQILAYGNQESKLIILASGGPQALVNIMRTYTYEKLLWTTSRVLKVLSVCSSNKPAIVEAGGMQALGLHLTDPSQRLVQNCLWTLRNLSDAATKQEGMEGLLGTLVQLLGSDDINVVTCAAGILSNLTCNNYKNKMMVCQVGGIEALVRTVLRAGDREDITEPAICALRHLTSRHQEAEMAQNAVRLHYGLPVVVKLLHPPSHWPLIKATVGLIRNLALCPANHAPLREQGAIPRLVQLLVRAHQDTQRRTSMGGTQQQFVEGVRMEEIVEGCTGALHILARDVHNRIVIRGLNTIPLFVQLLYSPIENIQRVAAGVLCELAQDKEAAEAIEAEGATAPLTELLHSRNEGVATYAAAVLFRMSEDKPQDYKKRLSVELTSSLFRTEPMAWNETADLGLDIGAQGEPLGYRQDDPSYRSFHSGGYGQDALGMDPMMEHEMGGHHPGADYPVDGLPDLGHAQDLMDGLPPGDSNQLAWFDTDL
With B1, the binding entry in experiment [2] is listed as “binds”.
